Results reported in patent publication US9987294B2, “Mitochondria-targeted anti-tumor agents” (University of Massachusetts, priority 2007, dated 2018).
Entries after “also recorded” stand apart in the source; their conditions may differ. Where a SMILES comes first, the peptide text is derived from it. [ ]: non-standard residue; d: D form.

Key:
HeLa cells = experiment: Subcellular localization of FITC-conjugated peptidomimetics in living cells (confocal microscopy, fluorescence of extracts); type: cell-based, human
HeLa cell mitochondria = experiment: Accumulation of FITC-conjugated peptidomimetics in isolated mitochondria and submitochondrial fractions; set-up: species or system human; conditions: for accumulation inside purified mitochondria (fluorescence): fluorescein-conjugated, purified HeLa cell mitochondria; for submitochondrial distribution: unfractionated mitochondria, intermembrane space, inner membrane, matrix

| Compound | accumulation in total cell extracts and cytosol fractions of treated cells (HeLa cells) | co-localization with MitoTracker in intact living cells (HeLa cells; confocal microscopy, fluorescein-conjugated) | accumulation inside purified mitochondria (fluorescence) (HeLa cell mitochondria) | efficiency of intramitochondrial penetration (quantified fluorescence intensity) (HeLa cell mitochondria; isolated mitochondria) | submitochondrial distribution (HeLa cell mitochondria) |
| --- | --- | --- | --- | --- | --- |
| CSCC[C@@H](NC(=O)[C@@H](CCCCN)NC(=O)[C@@H](Cc1c[nH]c2ccccc12)NC(=O)[C@@H](CCCCN)NC(=O)[C@H](N)CCCCN)C(=O)N[C@H](CCCNC(=N)N)C(=O)N[C@H](CCCNC(=N)N)C(=O)N[C@H](CC(N)=O)C(=O)N[C@H](CCC(N)=O)C(=O)N[C@H](Cc1ccccc1)C(=O)N[C@H](Cc1c[nH]c2ccccc12)C(=O)N[C@@H](C(=O)N[C@H](CCCCN)C(=O)N[C@@H](C(=O)N[C@H](CCC(N)=O)C(=O)N[C@H](CCCNC(=N)N)C(=O)N[C@H](CC(C)C)C(=O)N[C@H](Cc1ccccc1)C(=O)N[C@H](C)C(=O)N[C@H](CS)C(=O)NCC(=O)N[C@H](CO)C(=O)N[C@H](CO)C(=O)N[C@H](Cc1c[nH]cn1)C(=O)N[C@H](CCCCN)C(N)=O)C(C)C)C(C)C [Sheph-ANT] (H-[dK][dK][dW][dK][dM][dR][dR][dN][dQ][dF][dW][dV][dK][dV][dQ][dR][dL][dF][dA][dC]G[dS][dS][dH][dK]-NH2; N-terminus and C-terminus assumed) | comparably accumulated in total cell extracts and cytosol fractions | co-localized with the reactivity of a mitochondrial marker, MitoTracker | accumulated inside the purified mitochondria; also recorded: accumulate in mitochondria | indistinguishable for efficiency of intramitochondrial penetration; also recorded: accumulate to similar levels in mitochondria | present in unfractionated mitochondria, as well as in all submitochondrial compartments; also recorded: accumulates in the mitochondria, outer membrane/inner membrane space (OM+IMS), and inner membrane/matrix (IM+Matrix) |
| Sheph: Shepherdin lacking the Antennapedia cell-penetrating sequence (LFACGSSHK; D-residues) | – | – | no fluorescence signal was detected | – | not found in mitochondria or any sub-mitochondrial compartment |
